Test results from article doi:10.1101/2019.12.23.887547.
These are yes or no findings as the source states them, for the method shown. Binding seen in cells or lysates may run through a third protein. A yes stands for co-enrichment or nearness to the bait. Other partners may have been found. For some of these results: A no says only that the protein was not detected with the bait. Where a sequence is shown, tags or fusion partners need not be part of it. One block for each molecule: values may come before it.

Sequences of proteins named here, by UniProt entry; tags and fusion partners are left off.
UniProt P83916: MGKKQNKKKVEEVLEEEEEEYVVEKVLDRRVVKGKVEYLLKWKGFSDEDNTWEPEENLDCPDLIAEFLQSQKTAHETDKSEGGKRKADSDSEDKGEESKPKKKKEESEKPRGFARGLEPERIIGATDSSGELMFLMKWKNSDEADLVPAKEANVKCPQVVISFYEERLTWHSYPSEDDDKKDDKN
UniProt Q9NU22: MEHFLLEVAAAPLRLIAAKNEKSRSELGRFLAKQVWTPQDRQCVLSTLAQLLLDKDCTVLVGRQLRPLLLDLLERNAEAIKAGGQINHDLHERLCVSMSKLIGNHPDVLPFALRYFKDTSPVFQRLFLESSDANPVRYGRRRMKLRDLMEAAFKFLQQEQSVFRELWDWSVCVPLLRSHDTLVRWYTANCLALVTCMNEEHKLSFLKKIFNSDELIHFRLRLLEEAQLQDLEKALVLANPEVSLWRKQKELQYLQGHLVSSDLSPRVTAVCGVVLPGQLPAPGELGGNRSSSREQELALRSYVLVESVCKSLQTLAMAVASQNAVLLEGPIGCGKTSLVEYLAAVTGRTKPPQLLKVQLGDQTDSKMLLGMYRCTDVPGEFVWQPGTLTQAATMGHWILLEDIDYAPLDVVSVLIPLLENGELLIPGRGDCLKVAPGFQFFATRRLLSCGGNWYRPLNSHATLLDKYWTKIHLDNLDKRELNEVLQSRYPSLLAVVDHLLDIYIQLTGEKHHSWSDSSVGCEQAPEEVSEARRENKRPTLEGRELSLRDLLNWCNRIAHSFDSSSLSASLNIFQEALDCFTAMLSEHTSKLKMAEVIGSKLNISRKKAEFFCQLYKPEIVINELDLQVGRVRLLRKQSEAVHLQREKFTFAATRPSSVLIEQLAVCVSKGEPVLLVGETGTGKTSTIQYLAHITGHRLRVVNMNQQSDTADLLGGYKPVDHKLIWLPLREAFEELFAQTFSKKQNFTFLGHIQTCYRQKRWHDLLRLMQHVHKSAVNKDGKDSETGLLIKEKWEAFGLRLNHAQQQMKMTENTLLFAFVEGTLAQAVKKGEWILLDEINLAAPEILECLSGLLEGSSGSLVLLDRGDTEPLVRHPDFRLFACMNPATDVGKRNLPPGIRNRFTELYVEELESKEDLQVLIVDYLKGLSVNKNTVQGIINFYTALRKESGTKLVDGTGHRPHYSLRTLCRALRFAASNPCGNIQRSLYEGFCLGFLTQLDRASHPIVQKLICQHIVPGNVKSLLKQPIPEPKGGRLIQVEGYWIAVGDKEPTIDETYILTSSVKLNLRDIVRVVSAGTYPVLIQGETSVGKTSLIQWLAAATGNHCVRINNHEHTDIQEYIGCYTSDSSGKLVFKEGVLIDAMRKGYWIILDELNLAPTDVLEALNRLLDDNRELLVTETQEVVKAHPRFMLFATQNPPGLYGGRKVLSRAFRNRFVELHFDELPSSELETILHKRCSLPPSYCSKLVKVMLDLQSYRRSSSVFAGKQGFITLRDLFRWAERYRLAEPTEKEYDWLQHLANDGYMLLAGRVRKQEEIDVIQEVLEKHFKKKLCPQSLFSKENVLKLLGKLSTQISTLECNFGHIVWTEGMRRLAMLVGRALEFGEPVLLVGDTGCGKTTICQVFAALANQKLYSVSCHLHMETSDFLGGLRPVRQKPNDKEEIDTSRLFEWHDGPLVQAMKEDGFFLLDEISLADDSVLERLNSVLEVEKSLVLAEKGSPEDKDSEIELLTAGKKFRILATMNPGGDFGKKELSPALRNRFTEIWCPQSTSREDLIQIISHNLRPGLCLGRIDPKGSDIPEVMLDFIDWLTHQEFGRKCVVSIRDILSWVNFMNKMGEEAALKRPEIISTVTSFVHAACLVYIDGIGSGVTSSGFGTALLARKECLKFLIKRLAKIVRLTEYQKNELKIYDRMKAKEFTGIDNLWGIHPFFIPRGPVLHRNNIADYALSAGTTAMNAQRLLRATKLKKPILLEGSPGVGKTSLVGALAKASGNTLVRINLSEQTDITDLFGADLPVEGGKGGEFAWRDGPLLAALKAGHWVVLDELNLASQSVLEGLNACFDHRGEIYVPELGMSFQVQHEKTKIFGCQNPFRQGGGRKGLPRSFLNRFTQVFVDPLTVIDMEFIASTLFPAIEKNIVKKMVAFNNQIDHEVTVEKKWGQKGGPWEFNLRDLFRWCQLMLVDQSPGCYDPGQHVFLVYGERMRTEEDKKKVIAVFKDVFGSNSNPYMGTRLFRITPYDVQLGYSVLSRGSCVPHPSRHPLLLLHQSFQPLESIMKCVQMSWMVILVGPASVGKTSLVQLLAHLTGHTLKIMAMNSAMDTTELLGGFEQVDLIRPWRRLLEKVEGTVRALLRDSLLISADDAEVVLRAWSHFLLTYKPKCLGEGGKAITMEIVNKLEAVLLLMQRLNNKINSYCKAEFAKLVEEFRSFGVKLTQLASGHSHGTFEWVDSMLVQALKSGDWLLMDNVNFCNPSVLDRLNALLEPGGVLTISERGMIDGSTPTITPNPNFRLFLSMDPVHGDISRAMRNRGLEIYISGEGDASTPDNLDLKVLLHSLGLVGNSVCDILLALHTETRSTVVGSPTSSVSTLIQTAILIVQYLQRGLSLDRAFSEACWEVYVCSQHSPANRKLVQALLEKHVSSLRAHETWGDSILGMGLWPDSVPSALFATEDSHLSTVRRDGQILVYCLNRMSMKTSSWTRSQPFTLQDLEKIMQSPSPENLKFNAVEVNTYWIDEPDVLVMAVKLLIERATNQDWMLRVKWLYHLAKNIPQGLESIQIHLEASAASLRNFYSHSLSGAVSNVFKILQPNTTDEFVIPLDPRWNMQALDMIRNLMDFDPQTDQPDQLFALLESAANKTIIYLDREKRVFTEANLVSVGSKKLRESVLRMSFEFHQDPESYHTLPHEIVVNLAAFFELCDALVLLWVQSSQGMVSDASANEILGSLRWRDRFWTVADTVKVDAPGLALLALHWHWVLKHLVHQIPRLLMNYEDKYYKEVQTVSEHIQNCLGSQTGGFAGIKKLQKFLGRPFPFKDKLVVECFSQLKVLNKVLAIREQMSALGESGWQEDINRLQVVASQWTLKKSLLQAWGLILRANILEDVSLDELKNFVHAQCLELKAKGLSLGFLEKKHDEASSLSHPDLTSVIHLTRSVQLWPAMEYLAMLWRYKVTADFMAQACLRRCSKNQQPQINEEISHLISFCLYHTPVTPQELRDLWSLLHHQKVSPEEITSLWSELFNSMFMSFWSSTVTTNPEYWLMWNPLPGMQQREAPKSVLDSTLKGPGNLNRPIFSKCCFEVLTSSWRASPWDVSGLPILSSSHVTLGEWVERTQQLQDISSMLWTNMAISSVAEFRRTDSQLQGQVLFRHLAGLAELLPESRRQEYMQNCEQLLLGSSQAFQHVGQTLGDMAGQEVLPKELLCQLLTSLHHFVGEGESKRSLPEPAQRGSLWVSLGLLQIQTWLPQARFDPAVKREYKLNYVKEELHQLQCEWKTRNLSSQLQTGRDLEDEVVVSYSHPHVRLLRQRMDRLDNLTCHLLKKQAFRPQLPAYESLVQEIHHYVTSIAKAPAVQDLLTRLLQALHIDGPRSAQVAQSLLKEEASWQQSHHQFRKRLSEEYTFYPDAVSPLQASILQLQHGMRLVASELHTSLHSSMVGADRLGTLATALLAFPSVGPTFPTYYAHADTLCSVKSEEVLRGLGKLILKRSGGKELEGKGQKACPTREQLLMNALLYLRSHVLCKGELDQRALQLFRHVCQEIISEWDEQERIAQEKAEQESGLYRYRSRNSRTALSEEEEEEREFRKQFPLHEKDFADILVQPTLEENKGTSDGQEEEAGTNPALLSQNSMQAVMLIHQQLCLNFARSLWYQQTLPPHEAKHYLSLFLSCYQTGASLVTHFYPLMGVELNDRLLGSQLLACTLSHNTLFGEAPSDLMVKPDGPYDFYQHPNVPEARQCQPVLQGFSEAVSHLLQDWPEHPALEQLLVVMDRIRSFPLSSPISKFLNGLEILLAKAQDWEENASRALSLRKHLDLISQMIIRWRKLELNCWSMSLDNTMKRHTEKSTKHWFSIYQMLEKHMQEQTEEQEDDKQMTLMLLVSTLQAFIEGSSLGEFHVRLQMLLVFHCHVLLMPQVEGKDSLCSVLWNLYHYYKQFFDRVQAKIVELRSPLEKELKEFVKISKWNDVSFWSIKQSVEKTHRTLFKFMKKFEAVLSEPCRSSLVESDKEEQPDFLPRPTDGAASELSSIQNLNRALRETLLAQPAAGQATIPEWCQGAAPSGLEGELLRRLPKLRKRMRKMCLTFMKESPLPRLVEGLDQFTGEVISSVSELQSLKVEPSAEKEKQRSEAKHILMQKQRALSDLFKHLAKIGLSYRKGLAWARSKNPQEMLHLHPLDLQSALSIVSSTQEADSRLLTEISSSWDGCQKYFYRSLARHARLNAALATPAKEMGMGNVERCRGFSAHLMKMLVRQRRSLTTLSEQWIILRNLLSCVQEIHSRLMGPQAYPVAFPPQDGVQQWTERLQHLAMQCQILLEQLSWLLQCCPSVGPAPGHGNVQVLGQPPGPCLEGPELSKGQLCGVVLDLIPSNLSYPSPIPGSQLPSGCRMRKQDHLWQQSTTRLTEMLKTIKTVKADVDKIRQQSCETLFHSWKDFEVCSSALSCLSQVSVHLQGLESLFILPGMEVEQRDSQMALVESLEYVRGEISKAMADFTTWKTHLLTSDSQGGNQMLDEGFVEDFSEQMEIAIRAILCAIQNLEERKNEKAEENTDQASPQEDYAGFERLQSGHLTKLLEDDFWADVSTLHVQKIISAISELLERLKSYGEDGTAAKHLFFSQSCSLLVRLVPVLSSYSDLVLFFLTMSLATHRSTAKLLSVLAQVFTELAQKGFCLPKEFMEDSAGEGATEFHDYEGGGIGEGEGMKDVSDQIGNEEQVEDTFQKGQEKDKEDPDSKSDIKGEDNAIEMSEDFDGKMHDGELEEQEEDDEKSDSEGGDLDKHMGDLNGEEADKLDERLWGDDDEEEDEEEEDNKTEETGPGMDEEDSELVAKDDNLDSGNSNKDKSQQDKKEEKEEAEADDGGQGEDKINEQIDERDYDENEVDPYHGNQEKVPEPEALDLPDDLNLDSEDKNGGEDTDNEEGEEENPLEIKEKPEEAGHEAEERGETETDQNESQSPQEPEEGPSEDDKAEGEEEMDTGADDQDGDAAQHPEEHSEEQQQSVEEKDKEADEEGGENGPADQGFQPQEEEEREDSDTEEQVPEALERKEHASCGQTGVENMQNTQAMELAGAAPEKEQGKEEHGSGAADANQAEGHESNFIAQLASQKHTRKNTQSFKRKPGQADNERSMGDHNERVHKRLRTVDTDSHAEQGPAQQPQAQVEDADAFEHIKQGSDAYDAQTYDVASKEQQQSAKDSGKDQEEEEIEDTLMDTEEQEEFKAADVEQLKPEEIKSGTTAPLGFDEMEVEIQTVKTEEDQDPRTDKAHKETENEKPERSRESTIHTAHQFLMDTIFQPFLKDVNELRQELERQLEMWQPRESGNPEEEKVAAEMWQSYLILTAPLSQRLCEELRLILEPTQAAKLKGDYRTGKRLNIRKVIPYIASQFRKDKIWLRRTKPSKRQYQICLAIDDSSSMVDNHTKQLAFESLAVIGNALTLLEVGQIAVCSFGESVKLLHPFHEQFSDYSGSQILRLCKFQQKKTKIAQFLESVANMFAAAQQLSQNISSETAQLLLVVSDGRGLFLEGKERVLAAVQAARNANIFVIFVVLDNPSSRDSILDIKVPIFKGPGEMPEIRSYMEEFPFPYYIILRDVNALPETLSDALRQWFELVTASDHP
UniProt Q15022: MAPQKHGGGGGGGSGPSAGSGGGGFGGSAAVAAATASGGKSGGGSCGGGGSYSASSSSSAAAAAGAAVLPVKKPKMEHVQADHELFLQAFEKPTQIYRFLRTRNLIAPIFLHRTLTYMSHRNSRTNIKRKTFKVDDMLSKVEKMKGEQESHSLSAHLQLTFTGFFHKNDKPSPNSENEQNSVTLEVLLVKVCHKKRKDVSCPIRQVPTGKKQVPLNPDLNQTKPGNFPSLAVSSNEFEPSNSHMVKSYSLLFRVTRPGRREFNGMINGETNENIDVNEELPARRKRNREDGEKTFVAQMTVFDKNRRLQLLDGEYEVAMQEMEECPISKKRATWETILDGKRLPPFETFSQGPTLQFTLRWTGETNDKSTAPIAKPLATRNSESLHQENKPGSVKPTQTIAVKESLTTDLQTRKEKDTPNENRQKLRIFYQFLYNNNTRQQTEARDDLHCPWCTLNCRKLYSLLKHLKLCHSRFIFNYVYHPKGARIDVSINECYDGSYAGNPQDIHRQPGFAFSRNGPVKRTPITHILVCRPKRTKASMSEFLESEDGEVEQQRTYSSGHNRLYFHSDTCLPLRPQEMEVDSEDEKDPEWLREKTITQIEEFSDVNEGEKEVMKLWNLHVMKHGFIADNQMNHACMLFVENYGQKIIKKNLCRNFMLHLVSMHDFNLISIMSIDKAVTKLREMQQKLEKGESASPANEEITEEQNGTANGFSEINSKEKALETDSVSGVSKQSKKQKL

Key:
[1] = molecular target: T1, 3xFlag-NOL9 (human (endogenous in HEK293FT)) (UniProt Q5SY16); assay: affinity purification with mass spectrometry
T1 sequence: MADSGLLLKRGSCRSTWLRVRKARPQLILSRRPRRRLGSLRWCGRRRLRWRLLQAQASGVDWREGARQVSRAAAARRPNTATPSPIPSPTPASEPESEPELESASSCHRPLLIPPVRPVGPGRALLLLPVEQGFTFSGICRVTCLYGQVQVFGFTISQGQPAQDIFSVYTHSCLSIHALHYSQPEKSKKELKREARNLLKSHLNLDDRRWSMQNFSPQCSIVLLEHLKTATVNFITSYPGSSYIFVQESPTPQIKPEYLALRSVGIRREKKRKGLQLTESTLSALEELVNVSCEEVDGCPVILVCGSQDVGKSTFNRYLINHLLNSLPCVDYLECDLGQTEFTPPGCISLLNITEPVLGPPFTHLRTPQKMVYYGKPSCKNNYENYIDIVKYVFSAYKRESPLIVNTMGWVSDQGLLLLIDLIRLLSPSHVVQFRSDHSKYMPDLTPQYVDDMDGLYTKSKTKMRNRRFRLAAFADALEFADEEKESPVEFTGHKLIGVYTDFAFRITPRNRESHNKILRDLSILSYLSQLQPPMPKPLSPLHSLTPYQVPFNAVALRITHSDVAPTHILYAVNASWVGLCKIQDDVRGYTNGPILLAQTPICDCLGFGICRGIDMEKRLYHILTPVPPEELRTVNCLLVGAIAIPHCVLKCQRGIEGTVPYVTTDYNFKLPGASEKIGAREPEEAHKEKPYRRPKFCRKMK

[2] = molecular target: T2, 3xFlag-WDR18 (human (endogenous in HEK293FT)) (UniProt Q9BV38); assay: affinity purification with mass spectrometry
T2 sequence: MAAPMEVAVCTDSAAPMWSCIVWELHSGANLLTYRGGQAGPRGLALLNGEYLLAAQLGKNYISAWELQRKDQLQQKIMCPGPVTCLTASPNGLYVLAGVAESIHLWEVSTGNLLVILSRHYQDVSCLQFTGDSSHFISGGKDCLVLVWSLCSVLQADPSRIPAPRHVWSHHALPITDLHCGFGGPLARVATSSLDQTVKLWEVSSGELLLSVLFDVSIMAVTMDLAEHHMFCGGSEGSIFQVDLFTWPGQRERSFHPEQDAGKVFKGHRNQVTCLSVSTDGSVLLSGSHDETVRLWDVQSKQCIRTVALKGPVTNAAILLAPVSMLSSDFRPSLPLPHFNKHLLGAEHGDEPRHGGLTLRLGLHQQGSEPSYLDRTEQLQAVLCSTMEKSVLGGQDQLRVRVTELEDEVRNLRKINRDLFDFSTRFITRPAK

Molecule: CBX1 (from UniProt P83916 1-185)
binding [1]: no binding

Molecule: CBX3 (from UniProt Q13185 1-183)
binding [1]: no binding

Molecule: PELP1 (from UniProt Q8IZL8 1-1130)
binding [1]: binds
binding [2]: binds

Molecule: USP7 (from UniProt Q93009 1-1102)
binding [1]: binds
binding [2]: binds

B3: LAS1L (protein, UniProt Q9Y4W2 1-734)
chain: MSWESGAGPGLGSQGMDLVWSAWYGKCVKGKGSLPLSAHGIVVAWLSRAEWDQVTVYLFCDDHKLQRYALNRITVWRSRSGNELPLAVASTADLIRCKLLDVTGGLGTDELRLLYGMALVRFVNLISERKTKFAKVPLKCLAQEVNIPDWIVDLRHELTHKKMPHINDCRRGCYFVLDWLQKTYWCRQLENSLRETWELEEFREGIEEEDQEEDKNIVVDDITEQKPEPQDDGKSTESDVKADGDSKGSEEVDSHCKKALSHKELYERARELLVSYEEEQFTVLEKFRYLPKAIKAWNNPSPRVECVLAELKGVTCENREAVLDAFLDDGFLVPTFEQLAALQIEYEDGQTEVQRGEGTDPKSHKNVDLNDVLVPKPFSQFWQPLLRGLHSQNFTQALLERMLSELPALGISGIRPTYILRWTVELIVANTKTGRNARRFSAGQWEARRGWRLFNCSASLDWPRMVESCLGSPCWASPQLLRIIFKAMGQGLPDEEQEKLLRICSIYTQSGENSLVQEGSEASPIGKSPYTLDSLYWSVKPASSSFGSEAKAQQQEEQGSVNDVKEEEKEEKEVLPDQVEEEEENDDQEEEEEDEDDEDDEEEDRMEVGPFSTGQESPTAENARLLAQKRGALQGSAWQVSSEDVRWDTFPLGRMPGQTEDPAELMLENYDTMYLLDQPVLEQRLEPSTCKTDTLGLSCGVGSGNCSNSSSSNFEGLLWSQGQLHGLKTGLQLF
binding [2]: binds

B4: WDR18 (protein, UniProt Q9BV38 1-432)
chain: T2 sequence
binding [1]: binds

B5: TEX10 (protein, UniProt Q9NXF1 1-929)
chain: MTKKRKRQHDFQKVKLKVGKKKPKLQNATPTNFKTKTIHLPEQLKEDGTLPTNNRKLNIKDLLSQMHHYNAGVKQSALLGLKDLLSQYPFIIDAHLSNILSEVTAVFTDKDANVRLAAVQLLQFLAPKIRAEQISPFFPLVSAHLSSAMTHITEGIQEDSLKVLDILLEQYPALITGRSSILLKNFVELISHQQLSKGLINRDRSQSWILSVNPNRRLTSQQWRLKVLVRLSKFLQALADGSSRLRESEGLQEQKENPHATSNSIFINWKEHANDQQHIQVYENGGSQPNVSSQFRLRYLVGGLSGVDEGLSSTENLKGFIEIIIPLLIECWVEAVPPQLATPVGNGIEREPLQVMQQVLNIISLLWKLSKQQDETHKLESWLRKNYLIDFKHHFMSRFPYVLKEITKHKRKEPNKSIKHCTVLSNNIDHLLLNLTLSDIMVSLANASTLQKDCSWIEMIRKFVTETLEDGSRLNSKQLNRLLGVSWRLMQIQPNREDTETLIKAVYTLYQQRGLILPVRTLLLKFFSKIYQTEELRSCRFRYRSKVLSRWLAGLPLQLAHLGSRNPELSTQLIDIIHTAAARANKELLKSLQATALRIYDPQEGAVVVLPADSQQRLVQLVYFLPSLPADLLSRLSRCCIMGRLSSSLAAMLIGILHMRSSFSGWKYSAKDWLMSDVDYFSFLFSTLTGFSKEELTWLQSLRGVPHVIQTQLSPVLLYLTDLDQFLHHWDVTEAVFHSLLVIPARSQNFDILQSAISKHLVGLTVIPDSTAGCVFGVICKLLDHTCVVSETLLPFLASCCYSLLYFLLTIEKGEAEHLRKRDKLWGVCVSILALLPRVLRLMLQSLRVNRVGPEELPVVGQLLRLLLQHAPLRTHMLTNAILVQQIIKNITTLKSGSVQEQWLTDLHYCFNVYITGHPQGPSALATVY
binding [1]: binds
binding [2]: binds

The next lines start with the values.

binding [1]: no binding
Molecule: CBX5 (from UniProt P45973 1-191)

binding [1]: binds
Molecule: EED (from UniProt O75530 1-441)

binding [1]: binds
Molecule: L3MBTL2 (from UniProt Q969R5 1-705)

binding [1]: binds
binding [2]: binds
Molecule: MDN1 (from UniProt Q9NU22 1-5596)

binding [1]: binds
binding [2]: binds
Molecule: RING1B (from UniProt Q99496 1-336)

binding [1]: binds
binding [2]: binds
Molecule: SENP3 (from UniProt Q9H4L4 1-574)

binding [1]: binds
Molecule: SUZ12 (from UniProt Q15022 1-739)

binding [2]: binds
B1: RYBP (protein, UniProt Q8N488 1-228)
chain: MTMGDKKSPTRPKRQAKPAADEGFWDCSVCTFRNSAEAFKCSICDVRKGTSTRKPRINSQLVAQQVAQQYATPPPPKKEKKEKVEKQDKEKPEKDKEISPSVTKKNTNKKTKPKSDILKDPPSEANSIQSANATTKTSETNHTSRPRLKNVDRSTAQQLAVTVGNVTVIITDFKEKTRSSSTSSSTVTSSAGSEQQNQSSSGSESTDKGSSRSSTPKGDMSAVNDESF

binding [2]: binds
B2: NOL9 (protein, UniProt Q5SY16 1-702)
chain: T1 sequence
